As a reminder, the fraction unbound is free concentration divided by total concentration. High values mean much free substance, low ones little free substance.

The nature of this data set: in vitro. To be noted: rat, plasma, pH 7.4, Unbound fraction in plasma, fu,plasma. On the procedure: Equilibrium dialysis was employed to determine the fraction of unbound drug in plasma (fu,plasma), homogenates of whole-brain (fu,brain) and the CNS regions of interest (fu,ROI) including the frontal cortex, parietal cortex, cerebellum, striatum, hippocampus, and spinal cord. […] Briefly, a Teflon 96-well plate (model HTD96b, HTDialysis LLC, Gales Ferry, CT, USA) with a cellulose membrane with a 12–14 kDa molecular weight cutoff was used. The cellulose membrane was treated according to the recommendations from the manufacturer before starting the experiment (HTDialysis LLC, Gales Ferry, CT, USA). Fresh plasma (n=3 rats per drug) was obtained on the day of the experiment and the pH of the plasma was adjusted to 7.40 using H3PO4. […] Whole brain and CNS regions of interest (n = 3–4 rats per drug) were homogenized in 1:9 (w:v) PBS pH 7.40. Diluted brain samples were individually spiked to a final concentration of 1,000 nM. […] Drug recovery and thermostability in plasma and brain were analyzed in each experiment by sampling spiked samples before and after the 6-h incubation. […] The fraction of unbound drug in plasma was assessed as a ratio between buffer and plasma concentrations. The unbound fraction of drug in the diluted (D) CNS tissue homogenate (fu,hD) was calculated as: […]

Compound `CN(C)CCOC(c1ccccc1)c1ccccc1` [Diphenhydramine, diphenhydramine] registered a fraction unbound at 6 h of 0.389 ± 0.053.

Values taken from publication PMC11554538, “Region-independent active CNS net uptake of marketed H^+/OC antiporter system substrates” (Frontiers in Cellular Neuroscience, 2024).
